Data as given in PubChem BioAssay AID1508587 (Peter MacCallum Cancer Centre, 2020).

Screen: 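Knockdowns that add to vemurafenib's cut in melanoma glycolysis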 (follow-up of hits)
System: human WM266.4 melanoma cells with a BRAF V600 mutation
Reagent: single siRNA against human genes, 25 nM
Timing: 96 h
Treatment: vemurafenib 300 nM (about IC25), given 48 h after transfection for 48 h
Detection: 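Medium lactate read by absorbance over DAPI-counted nuclei; ratio with versus without vemurafenib, set against non-targeting siRNA, averaged over 2 replicates; cell number also recorded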
Direction: lactate per cell, drug vs no drug: higher = less drug-induced drop in lactate per cell; lactate per cell with vemurafenib: higher = more lactate per cell under drug; lactate per cell without drug: higher = more lactate per cell without drug; cell growth with vemurafenib and cell growth without drug: higher = more cell growth over 48 h
Call rule: 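Enhancer call for any duplex whose drug versus no-drug per-cell lactate ratio is below 0.55 (2 SD beneath non-targeting average); genes confirmed when at least 2 of their 4 duplexes qualify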
The whole screen tested about 1,600 reagents; below is a random part of them. Of all reagents, 623 (39%) were called active. 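Calls are for each duplex; lactate ratios contain extreme outliers.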 The numbers tell different reagents against one gene apart. Reagent sequences are not shown.

gene knocked down	siRNA no.	lactate per cell, drug vs no drug	lactate per cell with vemurafenib	lactate per cell without drug	cell growth with vemurafenib	cell growth without drug	Call
PRR30 (proline rich 30)	1	0.42	1.2	1.76	0.43	0.39	active
PRR30 (proline rich 30)	2	0.52	1.13	1.36	0.11	0.19	active
PRR30 (proline rich 30)	3	0.6	0.58	0.62	0.24	0.53	inactive
PRR30 (proline rich 30)	4	0.68	1.01	0.94	0.46	0.26	inactive
H2BC4 (H2B clustered histone 4)	1	0.48	0.53	0.7	-0.11	0.16	active
H2BC4 (H2B clustered histone 4)	2	0.68	1.27	1.22	0.28	0.48	inactive
H2BC4 (H2B clustered histone 4)	3	0.84	1.29	1	0.87	0.97	inactive
H2BC4 (H2B clustered histone 4)	4	0.58	0.97	1.09	0.8	0.67	inactive
IGF2BP1 (insulin like growth factor 2 mRNA binding protein 1)	1	0.56	1.88	2.06	0.29	0.29	inactive
IGF2BP1 (insulin like growth factor 2 mRNA binding protein 1)	2	0.61	0.78	0.8	0.4	0.54	inactive
IGF2BP1 (insulin like growth factor 2 mRNA binding protein 1)	3	0.46	1.27	1.72	0.29	0.18	active
IGF2BP1 (insulin like growth factor 2 mRNA binding protein 1)	4	0.54	0.6	0.71	0	0.38	active
GPR158 (G protein-coupled receptor 158)	1	0.64	1.12	1.14	0.59	0.57	inactive
GPR158 (G protein-coupled receptor 158)	2	0.57	1.48	1.65	0.8	0.51	inactive
GPR158 (G protein-coupled receptor 158)	3	0.59	0.67	0.72	0.53	0.81	inactive
GPR158 (G protein-coupled receptor 158)	4	0.46	1.92	2.61	0.15	0.07	active
KLK7 (kallikrein related peptidase 7)	1	0.49	1.7	2.04	0.69	0.27	active
KLK7 (kallikrein related peptidase 7)	2	0.48	0.68	0.86	0.73	1.09	active
KLK7 (kallikrein related peptidase 7)	3	0.38	0.89	1.37	0.69	0.46	active
KLK7 (kallikrein related peptidase 7)	4	0.7	1.4	1.22	0.2	0.33	inactive
CT47A1 (cancer/testis antigen family 47 member A1)	1	0.53	0.82	1.12	0.87	0.87	active
CT47A1 (cancer/testis antigen family 47 member A1)	2	0.79	1.65	1.54	0.42	0.31	inactive
CT47A1 (cancer/testis antigen family 47 member A1)	3	0.62	1.55	1.82	0.35	0.29	inactive
CT47A1 (cancer/testis antigen family 47 member A1)	4	0.3	0.37	0.88	1.18	0.67	active
UBE2K (ubiquitin conjugating enzyme E2 K)	1	0.53	1.38	1.51	0.93	0.66	active
UBE2K (ubiquitin conjugating enzyme E2 K)	2	0.6	2.12	2.1	0	0	inactive
UBE2K (ubiquitin conjugating enzyme E2 K)	3	0.57	1.07	1.1	0.23	0.51	inactive
UBE2K (ubiquitin conjugating enzyme E2 K)	4	0.54	1.01	1.12	0.37	0.5	active
SOCS4 (suppressor of cytokine signaling 4)	1	0.5	0.95	1.12	1.03	0.98	active
SOCS4 (suppressor of cytokine signaling 4)	2	0.55	1.36	1.46	0.9	0.62	inactive
SOCS4 (suppressor of cytokine signaling 4)	3	0.51	1.26	1.46	0.61	0.52	active
SOCS4 (suppressor of cytokine signaling 4)	4	0.59	1.11	1.1	0.9	0.81	inactive
H2AC8 (H2A clustered histone 8)	1	0.65	0.75	0.76	1.08	1.13	inactive
H2AC8 (H2A clustered histone 8)	2	0.94	2.4	1.66	0.37	0.32	inactive
H2AC8 (H2A clustered histone 8)	3	0.82	1.23	1.06	0.38	0.53	inactive
H2AC8 (H2A clustered histone 8)	4	0.68	1.95	1.86	0.37	0.31	inactive
NFASC (neurofascin)	1	0.63	0.99	0.96	1.22	1.28	inactive
NFASC (neurofascin)	2	0.4	1.78	2.93	0.11	-0.04	active
NFASC (neurofascin)	3	0.33	0.46	0.92	0.33	0.35	active
NFASC (neurofascin)	4	0.35	1.03	1.83	0.33	0.12	active
ATP5PD (ATP synthase peripheral stalk subunit d)	1	0.65	1.28	1.29	0.71	0.72	inactive
ATP5PD (ATP synthase peripheral stalk subunit d)	2	0.83	1.56	1.22	0.85	0.96	inactive
ATP5PD (ATP synthase peripheral stalk subunit d)	3	0.73	1.46	1.32	0.74	0.79	inactive
ATP5PD (ATP synthase peripheral stalk subunit d)	4	0.47	0.73	1	0.69	0.65	active
LRRN3 (leucine rich repeat neuronal 3)	1	0.61	1.04	1.22	0.67	0.72	inactive
LRRN3 (leucine rich repeat neuronal 3)	2	0.77	1.23	1.16	0.6	0.61	inactive
LRRN3 (leucine rich repeat neuronal 3)	3	0.48	0.79	1.22	0.16	0.17	active
LRRN3 (leucine rich repeat neuronal 3)	4	0.55	1.38	1.79	0.62	0.32	inactive
ACSF3 (acyl-CoA synthetase family member 3)	1	0.8	1.5	1.31	0.09	0.29	inactive
ACSF3 (acyl-CoA synthetase family member 3)	2	0.56	1.79	2.27	0.18	0.1	inactive
ACSF3 (acyl-CoA synthetase family member 3)	3	0.71	1.02	0.94	0.95	1.11	inactive
ACSF3 (acyl-CoA synthetase family member 3)	4	0.46	0.66	0.94	0.53	0.65	active
RNF11 (ring finger protein 11)	1	0.38	0.76	1.17	0.7	0.5	active
RNF11 (ring finger protein 11)	2	0.42	2.88	4.12	0.14	-0.11	active
RNF11 (ring finger protein 11)	3	0.6	0.72	0.71	1.24	1.34	inactive
RNF11 (ring finger protein 11)	4	0.68	3.21	2.92	0.19	0.09	inactive
CERS4 (ceramide synthase 4)	1	0.53	1.9	2.5	0.38	0.16	active
CERS4 (ceramide synthase 4)	2	0.96	12.2	9.98	-0.18	-0.15	inactive
CERS4 (ceramide synthase 4)	3	0.55	0.82	1.07	0.52	0.36	inactive
CERS4 (ceramide synthase 4)	4	0.64	0.88	1	0.53	0.84	inactive
ATP2C1 (ATPase secretory pathway Ca2+ transporting 1)	1	0.4	0.86	1.25	0.43	0.21	active
ATP2C1 (ATPase secretory pathway Ca2+ transporting 1)	2	0.45	0.58	0.78	0.09	0.32	active
ATP2C1 (ATPase secretory pathway Ca2+ transporting 1)	3	0.53	0.94	1.06	0.48	0.36	active
ATP2C1 (ATPase secretory pathway Ca2+ transporting 1)	4	0.87	2.16	1.46	0.16	0.15	inactive

Reformatted: entries from further up
{"gene knocked down": "KLK7 (kallikrein related peptidase 7)", "siRNA no.": 4, "lactate per cell, drug vs no drug": 0.7, "lactate per cell with vemurafenib": 1.4, "lactate per cell without drug": 1.22, "cell growth with vemurafenib": 0.2, "cell growth without drug": 0.33, "Call": "inactive"}
{"gene knocked down": "CT47A1 (cancer/testis antigen family 47 member A1)", "siRNA no.": 1, "lactate per cell, drug vs no drug": 0.53, "lactate per cell with vemurafenib": 0.82, "lactate per cell without drug": 1.12, "cell growth with vemurafenib": 0.87, "cell growth without drug": 0.87, "Call": "active"}
{"gene knocked down": "CT47A1 (cancer/testis antigen family 47 member A1)", "siRNA no.": 2, "lactate per cell, drug vs no drug": 0.79, "lactate per cell with vemurafenib": 1.65, "lactate per cell without drug": 1.54, "cell growth with vemurafenib": 0.42, "cell growth without drug": 0.31, "Call": "inactive"}
{"gene knocked down": "CT47A1 (cancer/testis antigen family 47 member A1)", "siRNA no.": 3, "lactate per cell, drug vs no drug": 0.62, "lactate per cell with vemurafenib": 1.55, "lactate per cell without drug": 1.82, "cell growth with vemurafenib": 0.35, "cell growth without drug": 0.29, "Call": "inactive"}
